From patent US20240041922A1, “METHODS AND COMPOSITIONS” (Monash University, priority 2020, published 2024)
No constants are given. Whether binding was seen depends on the method and setting. Some binding calls cover weakened binding; strength is not graded here.

Sequences of proteins named here, by UniProt entry; tags and fusion partners are left off. Residues count along the entry.
UniProt P51681: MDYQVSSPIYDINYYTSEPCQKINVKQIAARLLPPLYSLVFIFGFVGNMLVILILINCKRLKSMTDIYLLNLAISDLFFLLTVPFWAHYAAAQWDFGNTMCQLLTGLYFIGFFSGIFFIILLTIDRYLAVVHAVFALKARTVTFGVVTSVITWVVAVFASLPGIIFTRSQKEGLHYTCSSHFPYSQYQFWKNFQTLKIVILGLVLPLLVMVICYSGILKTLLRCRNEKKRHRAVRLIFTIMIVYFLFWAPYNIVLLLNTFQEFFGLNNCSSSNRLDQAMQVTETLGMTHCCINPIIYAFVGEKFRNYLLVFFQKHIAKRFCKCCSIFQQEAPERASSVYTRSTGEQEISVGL
UniProt P51682: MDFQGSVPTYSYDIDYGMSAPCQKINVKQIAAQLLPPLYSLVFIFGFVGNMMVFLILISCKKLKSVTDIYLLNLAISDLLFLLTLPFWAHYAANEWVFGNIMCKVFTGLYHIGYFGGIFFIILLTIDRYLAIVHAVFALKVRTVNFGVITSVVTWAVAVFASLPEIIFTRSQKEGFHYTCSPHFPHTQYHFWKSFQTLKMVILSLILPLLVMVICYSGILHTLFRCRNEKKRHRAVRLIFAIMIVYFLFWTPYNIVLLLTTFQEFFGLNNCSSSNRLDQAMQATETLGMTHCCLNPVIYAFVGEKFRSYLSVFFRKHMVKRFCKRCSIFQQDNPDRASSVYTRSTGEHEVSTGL
UniProt P43490, residues 27-491: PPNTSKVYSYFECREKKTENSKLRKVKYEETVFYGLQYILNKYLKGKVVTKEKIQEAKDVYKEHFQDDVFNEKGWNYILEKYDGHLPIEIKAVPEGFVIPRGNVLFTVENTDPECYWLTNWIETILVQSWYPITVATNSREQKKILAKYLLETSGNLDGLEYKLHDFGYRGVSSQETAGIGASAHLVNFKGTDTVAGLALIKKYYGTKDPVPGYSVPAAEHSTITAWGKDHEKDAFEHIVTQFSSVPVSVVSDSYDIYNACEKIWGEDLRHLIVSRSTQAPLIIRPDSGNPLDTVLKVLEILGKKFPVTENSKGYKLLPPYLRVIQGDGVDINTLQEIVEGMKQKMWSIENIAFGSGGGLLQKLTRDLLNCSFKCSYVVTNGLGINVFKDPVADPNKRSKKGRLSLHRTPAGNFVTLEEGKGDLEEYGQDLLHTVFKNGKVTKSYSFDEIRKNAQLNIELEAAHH

Tests used:
[1] = target: GST-fused recombinant human CCR5 (Abcam) (human) (UniProt P51681); assay: ELISA: plate coated with hrCCR5, bound hrNAMPT(1) detected with a biotinylated anti-NAMPT antibody, non-specific binding to BSA deducted
[2] = target: recombinant mouse CCR5 (MyBioSource) (mouse) (UniProt P51682); assay: competition ELISA: plate coated with mrCCR5, 100 nM hrNAMPT(1) with rising mrCCL4; bound hrNAMPT(1) detected with a biotinylated anti-NAMPT antibody, BSA deducted
[3] = target: GST-fused recombinant human CCR5 (Abcam) (human) (UniProt P51681); assay: ELISA on coated hrCCR5 against BSA

Measured: binding

human recombinant NAMPT(1) (recombinant human visfatin, PeproTech) (from UniProt P43490 27-491) (ligand)
binds: all assays above
